A word on the melting point: it is the temperature of the solid-liquid transition.

`CCOC(=O)C1=C(CC)Nc2n[nH]cc2C1c1cccc2nonc12` (stereo not shown) [Example 240, Ethyl 4-(2,1,3-benzoxadiazol-4-yl)-6-ethyl-4,7-dihydro-2H-pyrazolo[3,4-b]pyridine-5-carboxylate] yielded a melting point of 196 °C.
